Experimental data published in PMC6616311, “Reconstitution of Microtubule Nucleation In Vitro Reveals Novel Roles for Mzt1” (Current Biology, 2019).
No constants are given. Whether binding was seen depends on the method and setting. Binding seen in cells or lysates may run through a third protein. Some entries that bind do so weakly or less than the wild type. For part of these data: Tags and fused reporters may be left off the sequences shown.

Tests used:
[1] = target: T1, Mto1/2[bonsai]^Strep-Mto1[bonsai] (S. pombe) (UniProt O94488+Q9USP7); assay: pull-down; Strep-Tactin Sepharose purification from High Five cells coexpressing Strep-Mto1/2[bonsai], untagged γ-TuSC and Mzt1; overnight 4°C; SDS-PAGE and western blot
T1 sequence 1: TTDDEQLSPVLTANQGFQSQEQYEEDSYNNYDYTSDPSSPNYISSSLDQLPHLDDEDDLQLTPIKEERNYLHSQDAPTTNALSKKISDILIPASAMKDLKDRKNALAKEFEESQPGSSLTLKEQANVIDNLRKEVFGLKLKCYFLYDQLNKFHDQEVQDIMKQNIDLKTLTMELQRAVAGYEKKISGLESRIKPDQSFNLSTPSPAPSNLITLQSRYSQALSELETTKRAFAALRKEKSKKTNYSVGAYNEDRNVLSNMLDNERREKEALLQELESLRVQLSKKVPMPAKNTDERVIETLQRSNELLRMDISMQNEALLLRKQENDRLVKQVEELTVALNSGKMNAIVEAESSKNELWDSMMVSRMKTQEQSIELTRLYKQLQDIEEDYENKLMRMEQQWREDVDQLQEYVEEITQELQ
T1 sequence 2: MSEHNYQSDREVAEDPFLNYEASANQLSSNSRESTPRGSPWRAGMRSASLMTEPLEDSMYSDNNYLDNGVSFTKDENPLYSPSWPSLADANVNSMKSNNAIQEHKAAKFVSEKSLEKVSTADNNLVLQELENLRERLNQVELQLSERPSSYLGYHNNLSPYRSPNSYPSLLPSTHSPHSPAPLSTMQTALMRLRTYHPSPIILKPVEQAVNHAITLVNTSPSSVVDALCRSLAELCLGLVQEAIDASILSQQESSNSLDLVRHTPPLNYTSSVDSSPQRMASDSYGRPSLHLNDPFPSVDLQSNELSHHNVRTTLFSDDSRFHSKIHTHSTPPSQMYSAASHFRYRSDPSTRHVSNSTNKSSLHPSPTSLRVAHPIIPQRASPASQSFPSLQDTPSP

[2] = target: T2, Mto1/2[bonsai]^GST-Mto1[bonsai] (S. pombe) (UniProt O94488+Q9USP7); assay: pull-down; glutathione agarose purification from High Five cells coexpressing GST-Mto1[bonsai], Mto2 and untagged γ-TuSC in the absence of Mzt1; HB100, overnight 4°C; SDS-PAGE and western blot
T2 sequence 1: T1 sequence 1
T2 sequence 2: T1 sequence 2

[3] = target: T1, Mto1/2[bonsai]^Strep-Mto1[bonsai] (S. pombe); assay: pull-down; Strep-Tactin Sepharose purification from High Five cells coexpressing Strep-Mto1/2[bonsai] and untagged γ-TuSC in the absence of Mzt1; overnight 4°C; SDS-PAGE and western blot
[4] = target: T2, Mto1/2[bonsai]^GST-Mto1[bonsai] (S. pombe); assay: pull-down; glutathione agarose purification from High Five cells coexpressing GST-Mto1[bonsai], Mto2, untagged γ-TuSC and Mzt1; HB100, overnight 4°C; SDS-PAGE and western blot
[5] = target: T3, Mto1[bonsai]-mECitrine (S. pombe) (UniProt O94488); assay: co-IP; anti-GFP antibody on Protein G Dynabeads precipitates Mto1[bonsai]-mECitrine from S. pombe lysates (control strain KS10055 and nmt81:3xFLAG-mzt1 strain KS10059, without or with 20 μM thiamine for 16 hr); IP buffer 50 mM Tris-HCl pH 7.5, 150 mM NaCl, 0.2% Triton X-100; western blot
T3 sequence: T1 sequence 1

Measured: binding

B1: Alp6 (untagged) (protein, UniProt Q9USQ2 1-832)
chain: MSEIHVKTALSRLADKYLQNSKNPSVPYTIETIVSFFQEIIHSISPDTFQLDIDDILYKIYSKIPPEENNDALFSKLSNLVSRLKSQTVIHNKSQILYFLYLLSPISQSSRDVSSHLLDESISNPINIPSTEVESSNFGQTRYDQVPENPQITDWDEGLENESSISIAHDSSRLNRSTETSSVQHTLITEADLLSSISYVLQGISTEYVQFKNELALLSKRIPVQYLLQMRALSETGLLYQELKVFSNYDPSVSQSIDGDNVSKAFINDQSLALQSLKSVISKELTNFLALIASLDSQIRADASLEKPMVTIRRCIAWTQVAKLKLRILSSVVNDNMNQENKKRLIQVVSKYNVHGDPLIQELSDKILTEITGPLYEMIENWIYKGELVDPYQEFFVKEKNGSESHDHQGQGDVVWKGKYFLDKELIPSFLSEELVDKIFLIGKSLNFARYGCGDFDWAQEHYQKLVKKLSYRDPHSLETVVDKAYTESINHLVYLMEEVFHLTDHLKAIKKYLLLGQGDFVDLLMESLGNSLDQPANTLFRHNLTASLESAIRSSNASYEPEYVLKRLDARLLELSHGETGWDVFTLEYKVDSPINVIITPYCSRQYLKIFNFLWRLKRIEFALAHSWRRVNLGERNVFRNLDYTKFEWHFVSCHLAEMIHFVCQLQYYILFEVIEISWQELQLAMEKPNATLDTYIEAHEKYVTSITHKGLLGGGKSRNEDSFLHQLHDILKVILNFHDAIELLYNFSCSLSNRIRINVPISTDALAAQYTPIKNELSNFTEEFQVRLQKLLHGLASHKDPEMRFLSVRLNYNEFYVSHRRRHDKDVTSQ
not listed: [5]
binds: all other assays above

B2: γ-tubulin (endogenous, S. pombe) (protein, UniProt P25295 1-446)
chain: MGREIITLQAGQCGNQIGSQFWQQLCLEHGIGPDGTLESFATEGVDRKDVFFYQSDDTRYIPRAILIDLEPRVVNNILSDTYGSLYNPENILITKNGGGAGNNWANGYSHAERIFEDIMDMIDREADGSDSLEGFSLLHSIAGGTGSGLGSFLLERLNDRYPKKIIQTYSVFPNSQSVSDVVVQPYNSLLALKRLTLNADSVVVLDNAALAHIAADRLHTQNPTFHQQNQLVSTVMSASTTTLRYPGYMNNDLVSIIASLIPSPRCHFLLTSYTPFTNQQVEEAKAIRKTTVLDVMRRLLLPKNQMVSVNPSKKSCFISILDIIQGEADPADVHKSLLRIRERRYASFIPWGPASIQVALSKKSPYIKTNHRVSGLMLANHTSIASLFKRTLDQYDRLRKRNAFLEQYKKEAIFEDDLNEFDSSRDVVADLINEYEACEDPNYLSL
binds: [5]

B3: Alp4 (untagged) (natural protein, S. pombe, UniProt Q9Y705 1-784, looked up)
chain: MVRSISSVLAKEESENGSPIPALEEGSVYHVSLKSEGVSPFSDRIQLNYLYDGKTFSDPSNLNIHQQEACLINELLNAFMGMEGVFVHLQDMKASSEFETIIMPPSFYILPGFDLGIKDIASEMLEMGSHYLSITAFIESRSHFEYGFVNHALCAALRKFVMDYVVLIMQCENQSRIDPNFSLQTLRLYTLPTSRSLRQVYLILRDLLLSMEKNASSSDDLGLSNIDDLLEQLNEGNDISHVVNATRSKKKVCKGGQVISFLTESLTKYAGDPVARKILTYLLREASRPYTKMLNEWIHLGLVNDPYDEFMIKIHKGITSMQLDEDYTDEYWEKRYVIREDQVPPQLLDLQNKVLFAGKYLNVVLECRKGVNNLASLNAKDDTQNQLLWPSTFDDDNFTLNIMNAYVYANESLLQLLQSSQSLYAHLYSLKHYFFLDQSDFFTTFLDNAQHELRKPAKYISITKLQSQLDLALRQPGTITATDPHKEYVTVEVNQTSLIDWLMHIVSISGLEEGTSSQGNEVWNESITKQADVGNETRNFESEHNRSTQGTSKVGSDKDINGFETMQLCYKVPFPLSLILSRKAIIRYQLLFRYFLLLRHVEMQLENSWVQHSKNSAWRLNSSNAKIEQWKRNSWLLRTRMLSFVQKIIYYTTSEVIETHWGKFMGELENARTVDNLMQEHIDFLDTCLKECMLTNSRLLKVQSKLLNTCAMFASYTSTFTRSLYLLENSEESFDEGRMDKMEEILRRYEDSFSRHLKSLVNACNYFASTETAALLSLVMKLTG
notes: Alp4, S. pombe γ-TuSC protein, homolog of human GCP2; also called homolog of human GCP2; source: High Five insect cells (MultiBac baculovirus), coexpressed with partners; in lysate, and co-purified in complexes
not listed: [5]
binds: all other assays above
